Source: the supplement of paper PMC10849652
This is one part of the list.

Protein sequences, listed by entry. Tags and fused reporters are not part of them. Lines headed by an entry give the natural chain unless they say otherwise; changes in a name come on top.
UniProt Q1KMD3: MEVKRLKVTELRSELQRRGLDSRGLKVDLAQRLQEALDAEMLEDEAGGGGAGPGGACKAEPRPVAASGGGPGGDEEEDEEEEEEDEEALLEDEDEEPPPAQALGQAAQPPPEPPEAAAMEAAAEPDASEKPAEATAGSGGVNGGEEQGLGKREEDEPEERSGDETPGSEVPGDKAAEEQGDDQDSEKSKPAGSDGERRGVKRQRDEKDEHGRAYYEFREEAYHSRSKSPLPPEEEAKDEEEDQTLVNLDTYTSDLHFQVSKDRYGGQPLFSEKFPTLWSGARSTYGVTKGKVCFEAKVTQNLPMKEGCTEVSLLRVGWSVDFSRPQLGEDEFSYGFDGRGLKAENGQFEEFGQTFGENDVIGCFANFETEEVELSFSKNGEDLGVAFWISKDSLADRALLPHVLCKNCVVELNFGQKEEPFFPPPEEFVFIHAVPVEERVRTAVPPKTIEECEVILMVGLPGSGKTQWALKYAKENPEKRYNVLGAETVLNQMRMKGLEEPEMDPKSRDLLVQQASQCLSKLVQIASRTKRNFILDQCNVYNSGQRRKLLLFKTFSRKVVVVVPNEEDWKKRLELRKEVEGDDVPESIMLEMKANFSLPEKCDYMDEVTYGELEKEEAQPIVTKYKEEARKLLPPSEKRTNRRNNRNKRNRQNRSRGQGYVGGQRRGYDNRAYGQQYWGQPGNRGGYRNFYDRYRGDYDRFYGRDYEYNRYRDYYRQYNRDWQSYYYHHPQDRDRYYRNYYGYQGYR
UniProt P09429: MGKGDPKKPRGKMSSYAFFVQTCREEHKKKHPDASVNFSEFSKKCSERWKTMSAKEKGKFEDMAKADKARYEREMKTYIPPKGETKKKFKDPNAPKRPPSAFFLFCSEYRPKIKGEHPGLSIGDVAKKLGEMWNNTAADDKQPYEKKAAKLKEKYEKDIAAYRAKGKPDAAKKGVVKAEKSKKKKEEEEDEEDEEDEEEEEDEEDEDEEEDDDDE
UniProt Q8NG08: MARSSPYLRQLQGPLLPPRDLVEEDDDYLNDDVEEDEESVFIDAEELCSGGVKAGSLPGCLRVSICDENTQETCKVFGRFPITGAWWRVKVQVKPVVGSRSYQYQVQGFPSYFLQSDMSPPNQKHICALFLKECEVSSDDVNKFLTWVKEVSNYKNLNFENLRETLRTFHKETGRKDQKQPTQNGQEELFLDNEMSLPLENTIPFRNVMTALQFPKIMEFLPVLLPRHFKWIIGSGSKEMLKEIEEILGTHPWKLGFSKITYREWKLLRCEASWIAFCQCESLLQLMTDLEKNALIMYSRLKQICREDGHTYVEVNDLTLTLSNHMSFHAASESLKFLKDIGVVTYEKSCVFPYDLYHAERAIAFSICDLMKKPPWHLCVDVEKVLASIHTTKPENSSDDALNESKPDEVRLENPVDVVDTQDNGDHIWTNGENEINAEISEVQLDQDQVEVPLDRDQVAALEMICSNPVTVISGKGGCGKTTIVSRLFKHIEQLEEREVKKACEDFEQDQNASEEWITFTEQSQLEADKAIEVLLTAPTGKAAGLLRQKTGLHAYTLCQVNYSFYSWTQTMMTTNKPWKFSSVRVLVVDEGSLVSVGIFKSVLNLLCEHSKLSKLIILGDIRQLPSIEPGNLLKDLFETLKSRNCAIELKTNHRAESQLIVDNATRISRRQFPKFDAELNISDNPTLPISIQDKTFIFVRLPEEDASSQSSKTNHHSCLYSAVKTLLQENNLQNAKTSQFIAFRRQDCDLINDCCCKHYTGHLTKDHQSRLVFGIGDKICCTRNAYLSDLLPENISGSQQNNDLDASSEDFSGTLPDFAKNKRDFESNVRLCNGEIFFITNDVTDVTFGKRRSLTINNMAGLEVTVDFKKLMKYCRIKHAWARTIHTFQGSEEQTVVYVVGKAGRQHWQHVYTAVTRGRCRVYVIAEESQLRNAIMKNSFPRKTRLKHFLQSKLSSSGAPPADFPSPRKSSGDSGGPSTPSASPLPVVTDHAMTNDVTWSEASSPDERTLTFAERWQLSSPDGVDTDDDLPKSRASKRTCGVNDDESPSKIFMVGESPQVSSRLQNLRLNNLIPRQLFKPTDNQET
UniProt Q9BUJ2: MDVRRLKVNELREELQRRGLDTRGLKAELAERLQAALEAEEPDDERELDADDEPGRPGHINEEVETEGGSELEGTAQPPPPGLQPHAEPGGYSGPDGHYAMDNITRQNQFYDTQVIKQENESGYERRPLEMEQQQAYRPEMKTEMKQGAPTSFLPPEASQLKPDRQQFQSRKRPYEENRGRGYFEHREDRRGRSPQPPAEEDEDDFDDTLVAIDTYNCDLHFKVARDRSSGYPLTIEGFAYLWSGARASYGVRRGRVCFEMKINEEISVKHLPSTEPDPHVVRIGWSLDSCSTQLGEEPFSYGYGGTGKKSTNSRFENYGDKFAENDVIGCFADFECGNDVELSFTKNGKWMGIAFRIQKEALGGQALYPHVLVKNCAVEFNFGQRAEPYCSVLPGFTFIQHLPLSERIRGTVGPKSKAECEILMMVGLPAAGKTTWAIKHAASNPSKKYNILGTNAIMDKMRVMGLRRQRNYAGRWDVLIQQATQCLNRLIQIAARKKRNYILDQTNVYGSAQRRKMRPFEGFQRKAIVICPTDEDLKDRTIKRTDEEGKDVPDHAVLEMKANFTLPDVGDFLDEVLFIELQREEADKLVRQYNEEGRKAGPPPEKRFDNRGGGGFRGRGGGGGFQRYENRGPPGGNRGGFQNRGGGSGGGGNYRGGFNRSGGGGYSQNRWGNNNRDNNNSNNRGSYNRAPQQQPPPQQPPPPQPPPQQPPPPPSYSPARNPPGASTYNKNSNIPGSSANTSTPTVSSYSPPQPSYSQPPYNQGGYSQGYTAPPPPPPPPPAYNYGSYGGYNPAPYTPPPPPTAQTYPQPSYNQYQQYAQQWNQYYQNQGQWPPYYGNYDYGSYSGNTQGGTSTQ
UniProt Q9NWY4: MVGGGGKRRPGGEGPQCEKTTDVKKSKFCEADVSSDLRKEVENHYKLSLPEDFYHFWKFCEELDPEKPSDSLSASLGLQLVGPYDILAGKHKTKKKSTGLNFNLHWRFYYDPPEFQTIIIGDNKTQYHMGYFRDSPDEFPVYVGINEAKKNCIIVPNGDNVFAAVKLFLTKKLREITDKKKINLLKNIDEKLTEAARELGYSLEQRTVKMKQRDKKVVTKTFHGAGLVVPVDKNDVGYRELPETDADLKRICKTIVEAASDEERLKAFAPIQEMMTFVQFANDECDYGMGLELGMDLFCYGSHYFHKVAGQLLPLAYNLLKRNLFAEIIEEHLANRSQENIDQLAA
UniProt Q14103: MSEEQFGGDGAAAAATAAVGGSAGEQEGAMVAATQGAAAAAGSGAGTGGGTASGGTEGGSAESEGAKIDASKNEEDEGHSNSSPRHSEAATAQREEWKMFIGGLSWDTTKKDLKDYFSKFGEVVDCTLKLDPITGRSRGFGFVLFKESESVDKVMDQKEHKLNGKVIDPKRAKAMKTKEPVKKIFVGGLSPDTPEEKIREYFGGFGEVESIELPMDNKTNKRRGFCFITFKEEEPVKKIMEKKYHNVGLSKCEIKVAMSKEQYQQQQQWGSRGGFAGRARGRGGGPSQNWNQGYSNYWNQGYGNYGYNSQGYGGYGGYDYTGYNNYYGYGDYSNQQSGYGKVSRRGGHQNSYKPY
UniProt Q5SSJ5: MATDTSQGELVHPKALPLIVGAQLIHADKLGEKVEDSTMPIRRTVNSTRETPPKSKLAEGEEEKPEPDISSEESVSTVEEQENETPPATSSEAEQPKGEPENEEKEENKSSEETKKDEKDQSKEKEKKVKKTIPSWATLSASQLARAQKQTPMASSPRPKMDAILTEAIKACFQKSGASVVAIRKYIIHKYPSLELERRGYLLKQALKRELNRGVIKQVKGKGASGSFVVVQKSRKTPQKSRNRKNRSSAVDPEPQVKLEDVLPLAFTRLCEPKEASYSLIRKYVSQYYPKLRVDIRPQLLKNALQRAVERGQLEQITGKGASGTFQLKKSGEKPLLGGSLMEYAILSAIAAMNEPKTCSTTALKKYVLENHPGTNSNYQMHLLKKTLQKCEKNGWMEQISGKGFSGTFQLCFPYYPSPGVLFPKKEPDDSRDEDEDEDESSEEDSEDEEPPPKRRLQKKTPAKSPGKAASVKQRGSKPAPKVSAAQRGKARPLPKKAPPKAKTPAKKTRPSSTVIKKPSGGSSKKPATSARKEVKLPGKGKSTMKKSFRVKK
UniProt P82970: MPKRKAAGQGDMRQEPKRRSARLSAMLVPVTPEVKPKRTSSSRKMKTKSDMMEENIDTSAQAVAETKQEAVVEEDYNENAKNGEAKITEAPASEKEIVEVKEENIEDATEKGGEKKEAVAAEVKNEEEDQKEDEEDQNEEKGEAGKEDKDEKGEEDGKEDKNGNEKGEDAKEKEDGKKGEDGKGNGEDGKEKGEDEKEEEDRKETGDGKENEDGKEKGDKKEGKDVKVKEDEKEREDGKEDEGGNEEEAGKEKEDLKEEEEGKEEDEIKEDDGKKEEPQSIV
UniProt Q53FT3: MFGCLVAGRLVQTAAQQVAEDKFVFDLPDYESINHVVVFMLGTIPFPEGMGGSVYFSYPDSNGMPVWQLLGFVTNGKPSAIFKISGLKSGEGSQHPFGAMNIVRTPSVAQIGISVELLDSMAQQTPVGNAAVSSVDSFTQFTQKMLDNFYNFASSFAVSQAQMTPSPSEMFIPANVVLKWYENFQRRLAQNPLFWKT
UniProt Q58FF7, whole entry, looked up: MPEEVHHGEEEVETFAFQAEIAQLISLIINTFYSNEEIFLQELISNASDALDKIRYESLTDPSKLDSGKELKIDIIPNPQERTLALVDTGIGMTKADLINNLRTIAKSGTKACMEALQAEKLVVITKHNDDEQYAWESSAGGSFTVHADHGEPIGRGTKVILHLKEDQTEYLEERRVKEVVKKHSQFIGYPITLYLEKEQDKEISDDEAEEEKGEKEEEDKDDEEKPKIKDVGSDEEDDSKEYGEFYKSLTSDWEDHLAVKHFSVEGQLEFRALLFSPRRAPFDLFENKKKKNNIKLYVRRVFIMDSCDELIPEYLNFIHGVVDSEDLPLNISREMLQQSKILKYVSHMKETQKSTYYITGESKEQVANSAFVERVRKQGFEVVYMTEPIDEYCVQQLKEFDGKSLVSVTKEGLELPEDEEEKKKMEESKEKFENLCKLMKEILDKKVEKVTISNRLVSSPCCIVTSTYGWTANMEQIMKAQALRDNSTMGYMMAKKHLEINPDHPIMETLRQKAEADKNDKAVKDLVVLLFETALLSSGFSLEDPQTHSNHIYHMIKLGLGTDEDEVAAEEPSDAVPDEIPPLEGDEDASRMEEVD
UniProt O15347: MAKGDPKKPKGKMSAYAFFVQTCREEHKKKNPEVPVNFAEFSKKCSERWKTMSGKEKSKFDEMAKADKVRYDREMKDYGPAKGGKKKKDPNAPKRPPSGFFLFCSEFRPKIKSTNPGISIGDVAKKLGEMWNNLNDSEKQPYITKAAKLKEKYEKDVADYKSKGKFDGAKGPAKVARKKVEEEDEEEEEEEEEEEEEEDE
UniProt P49773: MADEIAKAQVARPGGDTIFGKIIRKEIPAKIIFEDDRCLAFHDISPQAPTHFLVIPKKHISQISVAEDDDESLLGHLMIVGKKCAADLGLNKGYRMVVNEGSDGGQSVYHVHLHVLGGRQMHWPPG
UniProt P48723: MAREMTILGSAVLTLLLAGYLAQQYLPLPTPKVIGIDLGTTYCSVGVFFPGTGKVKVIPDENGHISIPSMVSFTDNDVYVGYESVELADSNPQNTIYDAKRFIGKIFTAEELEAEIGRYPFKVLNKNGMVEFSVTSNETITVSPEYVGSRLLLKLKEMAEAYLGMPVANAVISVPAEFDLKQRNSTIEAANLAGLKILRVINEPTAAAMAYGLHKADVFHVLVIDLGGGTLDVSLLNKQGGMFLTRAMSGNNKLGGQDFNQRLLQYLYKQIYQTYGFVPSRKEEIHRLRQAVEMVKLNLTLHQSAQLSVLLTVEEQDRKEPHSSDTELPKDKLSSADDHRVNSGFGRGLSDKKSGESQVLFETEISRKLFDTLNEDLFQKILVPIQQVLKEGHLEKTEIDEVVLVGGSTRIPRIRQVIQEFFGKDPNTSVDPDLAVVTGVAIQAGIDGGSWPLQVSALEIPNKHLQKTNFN
UniProt Q8WVV9: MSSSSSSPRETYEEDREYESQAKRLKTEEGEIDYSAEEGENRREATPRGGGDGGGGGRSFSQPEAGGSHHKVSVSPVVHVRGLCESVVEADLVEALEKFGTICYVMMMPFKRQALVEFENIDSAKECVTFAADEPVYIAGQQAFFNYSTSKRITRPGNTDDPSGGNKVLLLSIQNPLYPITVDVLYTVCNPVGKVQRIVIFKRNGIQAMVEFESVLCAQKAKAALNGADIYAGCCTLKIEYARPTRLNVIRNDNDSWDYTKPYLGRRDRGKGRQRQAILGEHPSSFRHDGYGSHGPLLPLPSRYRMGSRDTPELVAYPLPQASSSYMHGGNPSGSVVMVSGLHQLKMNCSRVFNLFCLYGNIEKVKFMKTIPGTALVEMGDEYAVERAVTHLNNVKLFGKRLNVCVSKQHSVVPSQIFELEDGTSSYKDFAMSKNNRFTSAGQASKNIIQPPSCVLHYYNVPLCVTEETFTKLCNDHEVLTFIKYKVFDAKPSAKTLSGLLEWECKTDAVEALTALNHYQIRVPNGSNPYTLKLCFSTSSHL

Legend:
Assay in all cases: log2 fold change, soluble protein after heating vs DMSO (PISA); higher = thermal stabilisation; K562 lysate, 10 uM; active = over 0.2 and 3.5 SD of the protein, either way, in both replicates (recomputed)
[1] = compound: C#Cc1cccc(Nc2ncnc3cc(OCCOC)c(OCCOC)cc23)c1 [erlotinib]
In short: (§1)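 Quantification was by TMTpro 16plex LC-MS/MS with equalised channel sums, applied to the supernatant after 21,000xg for 90 min. Samples were crude K562 extract at 1 mg/mL protein in PBS pH 7.4 with 1 mM MgCl2, treated with 10 μM compound for 30 min, heated for 3 min across 48°C-58°C, pooled and brought to 0.5% NP-40 at 4°C. Values are log-two fold changes in thermal stability relative to solvent controls, from duplicates.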

[2] = compound: C/C(=N\NC(=O)C1=CC(=CC=C1)S(=O)(=O)N2CCOCC2)/C3=C(C=CC(=C3)Cl)O
In short: as §1

[3] = compound: C1=CC(=CC=C1C2=NC3=C(N2)C=C(C=C3)C(=O)N)OC4=CC=C(C=C4)Cl
In short: as §1

[4] = compound: C1=CC2=C(C=CC(=C2)/C=C\3/C(=O)NC(=NCC4=CC=CS4)S3)N=C1
In short: as §1

[5] = compound: C1=CC2=NC=CN=C2C=C1/C=C/3\C(=O)NC(=O)S3
In short: as §1

[6] = compound: C1=CC=C(C=C1)C2=NC(=C(N2)C3=CC=NC=C3)C4=CC(=C(C=C4)Cl)O
In short: as §1

[7] = compound: C1=CC=C2C(=C1)C3=NNC4=CC=CC(=C43)C2=O
In short: as §1

[8] = compound: C1CCN(C1)C(=O)NC2=CC=CC(=C2)NC3=NC=C(C(=N3)NCCC4=CN=CN4)Br
In short: as §1

[9] = compound: C1CN(CCC1(CC2=CC=C(C=C2)Cl)N)C3=NC=NC4=C3C=CN4
In short: as §1

[10] = compound: C1COCCN1CCN2C3=CC=CC=C3N=C2NC(=O)C4=CC(=CC=C4)[N+](=O)[O-] [IRAK-1-4 Inhibitor I]
In short: as §1

Measured: log2 fold change

HSP90AA1 isoform 2 (UniProt P07900)
inactive: [1] -0.006 | [2] 0.02 | [3] 0.006 | [4] 0.012 | [5] -0.014 | [6] 0.004 | [7] 0.077 | [8] 0.006 | [9] 0.008 | [10] -0.008

HNRNPUL2 (UniProt Q1KMD3)
inactive: [1] -0.006 | [2] -0.002 | [3] 0.02 | [4] -0.004 | [5] -0.035 | [6] -0.006 | [7] -0.014 | [8] -0.001 | [9] -0.022 | [10] -0.003

HSD17B11 (UniProt Q8NBQ5)
inactive: [1] -0.027 | [2] -0.007 | [3] 0.016 | [4] 0.012 | [5] -0.013 | [6] 0.008 | [7] -0.002 | [8] -0.014 | [9] 0.005 | [10] 0.099

HSD17B4 (UniProt P51659)
inactive: [1] -0.003 | [2] -0.037 | [3] 0.016 | [4] -0.008 | [5] -0.015 | [6] -0.024 | [7] -0.008 | [8] -0.016 | [9] 0.032 | [10] 0.016

HMGB1 (UniProt P09429)
inactive: [1] -0.024 | [2] -0.017 | [3] -0.021 | [4] -0.03 | [5] -0.001 | [6] 0.035 | [7] 0.007 | [8] 0.012 | [9] 0.001 | [10] -0.015

HIC2 (UniProt Q96JB3)
inactive: [1] 0.01 | [2] -0.005 | [3] -0.015 | [4] -0.006 | [5] 0.003 | [6] 0.026 | [7] -0.08 | [8] -0.01 | [9] 0.028 | [10] 0.007

HELB (UniProt Q8NG08)
inactive: [1] 0.043 | [2] -0.076 | [3] 0.029 | [4] -0.01 | [5] -0.009 | [6] 0.069 | [7] 0.035 | [8] 0.107 | [9] 0.03 | [10] -0.034

HNRNPUL1 (UniProt Q9BUJ2)
inactive: [1] -0.039 | [2] 0.011 | [3] 0.002 | [4] -0.016 | [5] -0.023 | [6] -0.045 | [7] 0.03 | [8] 0.01 | [9] -0.02 | [10] -0.032

HERC2 (UniProt O95714)
inactive: [1] 0.014 | [2] 0.174 | [3] 0.115 | [4] 0.007 | [5] 0.01 | [6] 0.042 | [7] -0.061 | [8] -0.016 | [9] -0.001 | [10] -0.033

HMGN2 (UniProt P05204)
inactive: [1] -0.061 | [2] -0.044 | [3] 0.025 | [4] -0.043 | [5] -0.064 | [6] 0 | [7] 0.009 | [8] 0 | [9] 0.001 | [10] -0.034

HM13 (UniProt Q8TCT9)
inactive: [1] 0.053 | [2] -0.062 | [3] -0.033 | [4] 0.035 | [5] -0.07 | [6] -0.005 | [7] -0.073 | [8] -0.012 | [9] 0.03 | [10] 0.061

HPF1 (UniProt Q9NWY4)
inactive: [1] 0.04 | [2] 0.051 | [3] -0.06 | [4] 0.035 | [5] 0.037 | [6] 0.022 | [7] -0.058 | [8] 0.002 | [9] 0.026 | [10] -0.011

Quoted at random: 2 records from the list, in no set order.
HPF1 (UniProt Q9NWY4)
inactive: [1] 0.04 | [2] 0.051 | [3] -0.06 | [4] 0.035 | [5] 0.037 | [6] 0.022 | [7] -0.058 | [8] 0.002 | [9] 0.026 | [10] -0.011

HSD17B11 (UniProt Q8NBQ5)
inactive: [1] -0.027 | [2] -0.007 | [3] 0.016 | [4] 0.012 | [5] -0.013 | [6] 0.008 | [7] -0.002 | [8] -0.014 | [9] 0.005 | [10] 0.099

The listing continues.

HNRNPD isoform 2 (UniProt Q14103)
inactive: [1] -0.001 | [2] -0.014 | [3] -0.022 | [4] -0.027 | [5] 0.049 | [6] 0.014 | [7] -0.023 | [8] 0.012 | [9] -0.009 | [10] 0.018

HP1BP3 (UniProt Q5SSJ5)
inactive: [1] -0.007 | [2] -0.038 | [3] -0.012 | [4] 0.026 | [5] -0.008 | [6] -0.009 | [7] -0.004 | [8] 0.011 | [9] 0.014 | [10] -0.003

HMGN5 (UniProt P82970)
inactive: [1] 0.013 | [2] -0.122 | [3] 0.052 | [4] 0.021 | [5] -0.002 | [6] -0.013 | [7] 0.024 | [8] 0.067 | [9] 0.024 | [10] 0.007

HSDL2 (UniProt Q6YN16)
inactive: [1] -0.028 | [2] 0.034 | [3] -0.004 | [4] -0.018 | [5] 0.089 | [6] -0.019 | [7] -0.084 | [8] -0.066 | [9] 0.021 | [10] -0.018

HIKESHI (UniProt Q53FT3)
inactive: [1] -0.015 | [2] 0.173 | [3] -0.023 | [4] -0.073 | [5] 0.055 | [6] 0.002 | [7] 0.044 | [8] 0.039 | [9] 0.013 | [10] -0.019

HSP90AB3P (UniProt Q58FF7)
inactive: [1] -0.031 | [2] -0.011 | [3] -0.027 | [4] 0 | [5] -0.008 | [6] 0.018 | [7] 0.012 | [8] -0.062 | [9] 0 | [10] 0.033

HIP1 (UniProt O00291)
inactive: [1] 0.013 | [2] -0.008 | [3] 0.042 | [4] 0 | [5] -0.026 | [6] -0.017 | [7] -0.048 | [8] 0.018 | [9] 0.018 | [10] 0.009

HK1 isoform 2 (UniProt P19367)
inactive: [1] -0.027 | [2] -0.006 | [3] 0.009 | [4] 0.006 | [5] 0.007 | [6] 0.007 | [7] -0.006 | [8] 0.001 | [9] 0.014 | [10] -0.002

HMGB3 (UniProt O15347)
inactive: [1] -0.012 | [2] -0.057 | [3] 0.035 | [4] -0.016 | [5] -0.028 | [6] 0.006 | [7] 0.002 | [8] 0.024 | [9] -0.022 | [10] 0.005

HSD17B12 (UniProt Q53GQ0)
inactive: [1] -0.018 | [2] -0.026 | [3] -0.03 | [4] -0.018 | [5] 0.036 | [6] 0.006 | [7] -0.006 | [8] -0.022 | [9] 0.047 | [10] 0.03

HMG20B (UniProt Q9P0W2)
inactive: [1] -0.002 | [2] 0.076 | [3] 0.058 | [4] 0.053 | [5] 0.016 | [6] 0.02 | [7] -0.112 | [8] -0.074 | [9] -0.006 | [10] 0.017

HINT1 (UniProt P49773)
inactive: [1] -0.05 | [2] 0.043 | [3] -0.046 | [4] 0.03 | [5] -0.006 | [6] -0.016 | [7] -0.078 | [8] -0.045 | [9] 0.021 | [10] -0.045

HMGCL (UniProt P35914)
inactive: [1] 0.002 | [2] -0.089 | [3] 0.032 | [4] -0.016 | [5] -0.047 | [6] -0.005 | [7] -0.035 | [8] 0.005 | [9] 0.008 | [10] 0.024

HIP1R (UniProt O75146)
inactive: [1] -0.009 | [2] 0.051 | [3] 0.012 | [4] 0.013 | [5] -0.033 | [6] 0.005 | [7] -0.038 | [8] -0.041 | [9] 0.008 | [10] -0.018

HOOK3 (UniProt Q86VS8)
inactive: [1] -0.013 | [2] 0.03 | [3] 0.008 | [4] -0.026 | [5] -0.022 | [6] -0.022 | [7] -0.009 | [8] -0.016 | [9] -0.02 | [10] 0

HSPA13 (UniProt P48723)
inactive: [1] -0.009 | [2] 0.023 | [3] -0.04 | [4] 0.025 | [5] 0.007 | [6] -0.03 | [7] -0.011 | [8] 0.007 | [9] -0.025 | [10] -0.004

HNRNPLL (UniProt Q8WVV9)
inactive: [1] 0.007 | [2] 0 | [3] 0.011 | [4] 0.009 | [5] -0.017 | [6] -0.019 | [7] -0.035 | [8] 0.006 | [9] -0.009 | [10] -0.026
